# The other results are listed elsewhere or left out.
# Protein sequences, listed by entry. Tags and fused reporters are not part of them. Lines headed by an entry give the natural chain unless they say otherwise; changes in a name come on top.
# UniProt Q8N4S0: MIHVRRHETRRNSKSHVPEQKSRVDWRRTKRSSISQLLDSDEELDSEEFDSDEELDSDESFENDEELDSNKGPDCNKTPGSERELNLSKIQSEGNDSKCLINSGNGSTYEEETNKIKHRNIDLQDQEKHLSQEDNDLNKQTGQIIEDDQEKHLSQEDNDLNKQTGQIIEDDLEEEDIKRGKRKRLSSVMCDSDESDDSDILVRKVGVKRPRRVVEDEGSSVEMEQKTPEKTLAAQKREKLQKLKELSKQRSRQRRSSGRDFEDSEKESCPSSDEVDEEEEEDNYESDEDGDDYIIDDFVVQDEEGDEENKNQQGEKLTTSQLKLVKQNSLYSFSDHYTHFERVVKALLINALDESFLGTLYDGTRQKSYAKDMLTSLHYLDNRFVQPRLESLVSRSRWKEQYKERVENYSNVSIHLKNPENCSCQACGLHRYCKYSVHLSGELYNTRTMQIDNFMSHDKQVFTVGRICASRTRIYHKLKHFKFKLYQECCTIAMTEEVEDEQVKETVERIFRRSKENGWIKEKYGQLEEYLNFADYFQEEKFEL
# UniProt Q8TCZ2: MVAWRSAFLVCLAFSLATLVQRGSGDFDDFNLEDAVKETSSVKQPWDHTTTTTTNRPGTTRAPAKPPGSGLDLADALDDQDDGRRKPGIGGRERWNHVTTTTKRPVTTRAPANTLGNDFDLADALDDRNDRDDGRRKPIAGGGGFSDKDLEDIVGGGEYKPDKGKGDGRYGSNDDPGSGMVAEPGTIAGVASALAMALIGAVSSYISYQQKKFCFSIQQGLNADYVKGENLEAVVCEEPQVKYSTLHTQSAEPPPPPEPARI
# UniProt Q8IWP9: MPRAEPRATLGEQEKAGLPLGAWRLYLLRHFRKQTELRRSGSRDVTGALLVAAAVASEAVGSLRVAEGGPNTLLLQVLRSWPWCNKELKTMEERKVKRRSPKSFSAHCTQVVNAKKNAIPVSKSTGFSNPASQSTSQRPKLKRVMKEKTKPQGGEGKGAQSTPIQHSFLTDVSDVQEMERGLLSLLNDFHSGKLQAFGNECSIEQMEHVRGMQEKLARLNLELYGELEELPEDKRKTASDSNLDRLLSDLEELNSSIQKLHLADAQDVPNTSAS
# UniProt Q14790: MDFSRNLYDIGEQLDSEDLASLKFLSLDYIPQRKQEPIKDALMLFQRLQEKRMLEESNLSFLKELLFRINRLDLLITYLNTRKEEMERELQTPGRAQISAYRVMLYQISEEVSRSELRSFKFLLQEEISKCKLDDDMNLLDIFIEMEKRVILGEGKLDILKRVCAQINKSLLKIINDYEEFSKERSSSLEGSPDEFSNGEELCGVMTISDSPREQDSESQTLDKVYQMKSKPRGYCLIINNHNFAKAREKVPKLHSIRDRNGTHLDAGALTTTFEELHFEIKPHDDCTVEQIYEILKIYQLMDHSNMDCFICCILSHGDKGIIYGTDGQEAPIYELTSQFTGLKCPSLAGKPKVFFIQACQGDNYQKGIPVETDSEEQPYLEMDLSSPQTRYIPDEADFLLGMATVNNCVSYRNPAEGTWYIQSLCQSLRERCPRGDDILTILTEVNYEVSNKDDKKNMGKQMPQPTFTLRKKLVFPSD
# UniProt Q8N7R7: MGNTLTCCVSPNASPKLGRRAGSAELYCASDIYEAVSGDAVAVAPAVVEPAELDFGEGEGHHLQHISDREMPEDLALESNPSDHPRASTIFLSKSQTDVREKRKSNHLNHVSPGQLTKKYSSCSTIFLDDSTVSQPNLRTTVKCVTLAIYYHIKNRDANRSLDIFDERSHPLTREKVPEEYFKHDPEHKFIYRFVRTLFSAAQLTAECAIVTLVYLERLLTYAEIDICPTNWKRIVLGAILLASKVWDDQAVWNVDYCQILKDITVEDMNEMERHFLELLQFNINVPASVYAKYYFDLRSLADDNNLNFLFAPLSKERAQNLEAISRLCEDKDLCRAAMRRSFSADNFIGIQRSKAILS
# UniProt P0C221: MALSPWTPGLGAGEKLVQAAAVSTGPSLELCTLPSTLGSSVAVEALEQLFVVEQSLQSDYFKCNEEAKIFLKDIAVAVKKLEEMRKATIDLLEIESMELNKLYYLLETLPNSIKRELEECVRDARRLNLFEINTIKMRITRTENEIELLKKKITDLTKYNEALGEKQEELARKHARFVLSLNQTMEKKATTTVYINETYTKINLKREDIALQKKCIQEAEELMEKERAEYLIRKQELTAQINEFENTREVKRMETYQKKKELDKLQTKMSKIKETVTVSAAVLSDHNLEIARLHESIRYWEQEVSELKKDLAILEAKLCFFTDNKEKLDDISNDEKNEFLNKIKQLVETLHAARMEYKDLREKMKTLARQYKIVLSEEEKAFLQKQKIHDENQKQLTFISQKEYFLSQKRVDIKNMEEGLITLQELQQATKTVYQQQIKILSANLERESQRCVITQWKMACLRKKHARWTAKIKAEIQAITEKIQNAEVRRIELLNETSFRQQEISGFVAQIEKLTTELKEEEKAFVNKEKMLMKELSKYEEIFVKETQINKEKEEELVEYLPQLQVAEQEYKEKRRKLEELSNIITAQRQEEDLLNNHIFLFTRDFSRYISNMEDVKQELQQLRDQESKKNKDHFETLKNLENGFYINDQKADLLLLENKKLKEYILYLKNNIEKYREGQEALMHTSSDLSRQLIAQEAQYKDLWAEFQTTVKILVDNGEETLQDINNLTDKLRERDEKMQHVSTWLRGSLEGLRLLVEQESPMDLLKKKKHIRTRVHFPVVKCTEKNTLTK
# UniProt Q92526, whole entry, looked up: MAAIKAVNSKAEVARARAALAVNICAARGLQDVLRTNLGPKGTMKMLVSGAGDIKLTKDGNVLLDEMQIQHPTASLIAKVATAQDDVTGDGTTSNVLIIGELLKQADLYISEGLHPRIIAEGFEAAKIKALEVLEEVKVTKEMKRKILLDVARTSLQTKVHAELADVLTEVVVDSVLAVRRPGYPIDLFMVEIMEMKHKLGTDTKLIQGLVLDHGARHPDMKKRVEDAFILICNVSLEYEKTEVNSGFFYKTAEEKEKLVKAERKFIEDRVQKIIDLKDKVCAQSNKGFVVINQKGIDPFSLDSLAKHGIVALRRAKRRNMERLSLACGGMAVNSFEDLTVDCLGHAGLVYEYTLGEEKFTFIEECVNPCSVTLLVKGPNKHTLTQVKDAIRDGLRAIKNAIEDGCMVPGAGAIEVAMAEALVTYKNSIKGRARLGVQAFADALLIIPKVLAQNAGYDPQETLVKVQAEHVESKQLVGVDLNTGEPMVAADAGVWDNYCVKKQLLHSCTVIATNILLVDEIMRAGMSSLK
# UniProt A6NKD9: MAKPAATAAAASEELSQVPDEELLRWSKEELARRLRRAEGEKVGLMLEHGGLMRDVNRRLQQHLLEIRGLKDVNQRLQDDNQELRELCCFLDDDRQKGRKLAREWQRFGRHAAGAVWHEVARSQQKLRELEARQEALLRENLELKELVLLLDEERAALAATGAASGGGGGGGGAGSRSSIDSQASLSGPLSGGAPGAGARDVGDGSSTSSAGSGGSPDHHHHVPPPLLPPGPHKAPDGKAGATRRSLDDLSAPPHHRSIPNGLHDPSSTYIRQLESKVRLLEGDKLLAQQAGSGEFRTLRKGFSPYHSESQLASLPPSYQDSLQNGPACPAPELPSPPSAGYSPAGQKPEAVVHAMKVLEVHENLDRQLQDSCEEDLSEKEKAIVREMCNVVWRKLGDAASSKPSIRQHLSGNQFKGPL
# UniProt Q9P0B6: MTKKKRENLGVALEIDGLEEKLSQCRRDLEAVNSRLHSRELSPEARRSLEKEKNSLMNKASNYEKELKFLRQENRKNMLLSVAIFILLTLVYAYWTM
# UniProt P33681, whole entry, looked up: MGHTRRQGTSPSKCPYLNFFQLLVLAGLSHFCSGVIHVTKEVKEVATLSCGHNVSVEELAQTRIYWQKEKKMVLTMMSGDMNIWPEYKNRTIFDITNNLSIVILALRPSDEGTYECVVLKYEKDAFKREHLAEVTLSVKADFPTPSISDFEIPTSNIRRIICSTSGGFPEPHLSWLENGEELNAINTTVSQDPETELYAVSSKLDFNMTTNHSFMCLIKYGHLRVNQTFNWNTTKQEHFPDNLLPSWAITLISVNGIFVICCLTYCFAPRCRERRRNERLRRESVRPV
# UniProt Q12834, whole entry, looked up: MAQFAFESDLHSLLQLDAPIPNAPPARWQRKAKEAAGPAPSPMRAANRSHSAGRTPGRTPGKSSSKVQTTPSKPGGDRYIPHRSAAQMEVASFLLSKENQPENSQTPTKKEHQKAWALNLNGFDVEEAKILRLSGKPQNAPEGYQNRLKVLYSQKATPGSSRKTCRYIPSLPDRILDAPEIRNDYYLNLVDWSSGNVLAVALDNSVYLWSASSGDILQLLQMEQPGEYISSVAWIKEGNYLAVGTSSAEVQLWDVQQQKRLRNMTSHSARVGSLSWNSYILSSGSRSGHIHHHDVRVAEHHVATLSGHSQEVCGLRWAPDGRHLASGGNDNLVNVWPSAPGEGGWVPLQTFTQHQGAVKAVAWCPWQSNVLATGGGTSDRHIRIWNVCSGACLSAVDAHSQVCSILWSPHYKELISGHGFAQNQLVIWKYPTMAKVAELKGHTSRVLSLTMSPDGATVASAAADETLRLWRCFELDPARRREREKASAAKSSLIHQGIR
# UniProt P51636: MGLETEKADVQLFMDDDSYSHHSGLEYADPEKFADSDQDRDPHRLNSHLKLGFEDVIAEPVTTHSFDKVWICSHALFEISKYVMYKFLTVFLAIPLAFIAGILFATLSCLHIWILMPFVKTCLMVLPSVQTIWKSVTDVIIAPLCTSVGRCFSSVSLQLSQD
# UniProt Q2TAC2: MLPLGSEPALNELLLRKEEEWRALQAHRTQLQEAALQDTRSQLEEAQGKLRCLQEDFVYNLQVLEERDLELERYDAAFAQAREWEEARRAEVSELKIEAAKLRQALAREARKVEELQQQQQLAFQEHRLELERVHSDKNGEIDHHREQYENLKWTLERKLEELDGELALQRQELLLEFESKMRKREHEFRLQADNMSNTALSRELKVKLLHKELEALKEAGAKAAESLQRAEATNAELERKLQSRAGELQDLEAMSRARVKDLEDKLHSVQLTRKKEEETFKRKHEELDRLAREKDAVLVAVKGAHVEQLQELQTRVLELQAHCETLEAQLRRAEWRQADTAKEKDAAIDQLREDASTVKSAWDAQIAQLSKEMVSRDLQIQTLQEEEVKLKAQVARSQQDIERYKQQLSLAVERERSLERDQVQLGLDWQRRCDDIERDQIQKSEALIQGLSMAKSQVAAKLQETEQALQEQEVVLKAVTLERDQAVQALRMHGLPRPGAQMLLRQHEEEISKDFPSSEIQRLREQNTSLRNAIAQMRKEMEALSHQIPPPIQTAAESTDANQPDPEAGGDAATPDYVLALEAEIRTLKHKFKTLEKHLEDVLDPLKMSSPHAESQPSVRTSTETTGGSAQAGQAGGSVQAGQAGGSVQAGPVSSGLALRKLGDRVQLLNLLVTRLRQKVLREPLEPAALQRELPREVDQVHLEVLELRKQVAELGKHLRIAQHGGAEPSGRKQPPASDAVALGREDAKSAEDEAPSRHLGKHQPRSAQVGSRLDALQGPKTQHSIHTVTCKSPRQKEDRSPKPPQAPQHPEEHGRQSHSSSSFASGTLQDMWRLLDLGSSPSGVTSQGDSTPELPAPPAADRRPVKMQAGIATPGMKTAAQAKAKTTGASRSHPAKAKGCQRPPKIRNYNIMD
# UniProt Q4G0I0: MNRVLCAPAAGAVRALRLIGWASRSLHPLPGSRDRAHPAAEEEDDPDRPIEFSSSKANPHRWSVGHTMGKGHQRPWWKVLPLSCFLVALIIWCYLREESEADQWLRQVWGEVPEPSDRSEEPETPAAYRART
# UniProt Q6PK04: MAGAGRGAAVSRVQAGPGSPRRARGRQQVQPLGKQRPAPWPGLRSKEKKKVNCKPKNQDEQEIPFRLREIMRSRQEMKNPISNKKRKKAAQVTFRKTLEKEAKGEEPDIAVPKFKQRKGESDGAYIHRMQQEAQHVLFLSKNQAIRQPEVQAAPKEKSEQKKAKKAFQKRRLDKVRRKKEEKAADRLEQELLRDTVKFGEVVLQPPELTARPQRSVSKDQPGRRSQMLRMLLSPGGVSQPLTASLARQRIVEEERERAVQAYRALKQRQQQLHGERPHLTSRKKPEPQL
# UniProt O96020, whole entry, looked up: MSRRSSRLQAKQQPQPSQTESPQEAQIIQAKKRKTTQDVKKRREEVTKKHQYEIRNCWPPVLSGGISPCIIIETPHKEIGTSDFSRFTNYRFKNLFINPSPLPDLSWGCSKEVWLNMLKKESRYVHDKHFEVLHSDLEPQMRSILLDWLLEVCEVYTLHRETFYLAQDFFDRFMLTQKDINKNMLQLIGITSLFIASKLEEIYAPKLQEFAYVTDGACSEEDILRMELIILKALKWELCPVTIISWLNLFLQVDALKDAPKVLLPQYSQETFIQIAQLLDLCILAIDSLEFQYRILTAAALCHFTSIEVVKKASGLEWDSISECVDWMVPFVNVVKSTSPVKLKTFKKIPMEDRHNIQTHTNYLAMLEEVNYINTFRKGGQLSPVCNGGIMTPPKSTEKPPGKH
# How the values were obtained:
# Test in all cases: log2 fold change, soluble protein after heating vs DMSO (PISA); higher = thermal stabilisation; K562 cells, 10 uM, 30 min; active = over 0.2 and 3.5 SD of the protein, either way, in both replicates (recomputed)
# [1] = compound: COC1=CC=C(C=C1)CN2C=CC3=C2C=C(C=C3)C(=O)NO
# Procedure, shortened: (§1)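 K562 cells at 2×10^6 cells/mL were exposed to 10 μM compound for 30 min, then aliquots were heated for 3 min across 48°C-58°C, pooled, and extracted in PBS containing 0.5% NP-40 at 4°C. The supernatant after 21,000xg for 90 min was taken as soluble protein and measured by TMTpro 16plex LC-MS/MS with channel sums equalised. Thermal stability is reported relative to control samples, with values from duplicates. Fold changes are given on a log2 scale.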
# zotarolimus = compound: CO[C@H]1C[C@@H]2CC[C@@H](C)[C@@](O)(O2)C(=O)C(=O)N2CCCC[C@H]2C(=O)O[C@H]([C@H](C)C[C@@H]2CC[C@H](n3cnnn3)[C@H](OC)C2)CC(=O)[C@H](C)/C=C(\C)[C@@H](O)[C@@H](OC)C(=O)[C@H](C)C[C@H](C)/C=C/C=C/C=C/1C [zotarolimus]
# Procedure, shortened: as §1
# idasanutlin = compound: COc1cc(C(=O)O)ccc1NC(=O)[C@@H]1N[C@@H](CC(C)(C)C)[C@](C#N)(c2ccc(Cl)cc2F)[C@H]1c1cccc(Cl)c1F [idasanutlin]
# Procedure, shortened: as §1
# alisertib = compound: COc1cc(Nc2ncc3c(n2)-c2ccc(Cl)cc2C(c2c(F)cccc2OC)=NC3)ccc1C(=O)O [alisertib]
# Procedure, shortened: as §1
# [2] = compound: COc1cc2nc(-c3cc(F)ccc3O)nc(N[C@@H]3CNC[C@H]3C(C)(C)O)c2cc1OC
# Procedure, shortened: as §1
# gefitinib = compound: COc1cc2ncnc(Nc3ccc(F)c(Cl)c3)c2cc1OCCCN1CCOCC1 [gefitinib]
# Procedure, shortened: as §1
# [3] = compound: COc1cccc2cc(-c3nc([C@H]4CC[C@H](C(=O)O)CC4)n4ncnc(N)c34)[nH]c12
# Procedure, shortened: as §1
# lapatinib = compound: CS(=O)(=O)CCNCc1ccc(-c2ccc3ncnc(Nc4ccc(OCc5cccc(F)c5)c(Cl)c4)c3c2)o1 [lapatinib]
# Procedure, shortened: as §1
# crizotinib = compound: C[C@@H](Oc1cc(-c2cnn(C3CCNCC3)c2)cnc1N)c1c(Cl)ccc(F)c1Cl [crizotinib]
# Procedure, shortened: as §1
# [4] = compound: C[C@@H]1COCCN1C2=NC(=NC(=C2)C3(CC3)S(=O)(=O)C)C4=C5C=CNC5=CC=C4
# Procedure, shortened: as §1
# [5] = compound: C[C@H](C1=CC=C(C=C1)C(=O)NC2=C3C=CNC3=NC=C2)N
# Procedure, shortened: as §1
# [6] = compound: Cc1cc(SCc2sc(-c3ccc(C(F)(F)F)cc3)nc2C)ccc1OCC(=O)O
# Procedure, shortened: as §1
# doramapimod = compound: Cc1ccc(-n2nc(C(C)(C)C)cc2NC(=O)Nc2ccc(OCCN3CCOCC3)c3ccccc23)cc1 [doramapimod]
# Procedure, shortened: as §1
# ispinesib = compound: Cc1ccc(C(=O)N(CCCN)[C@@H](c2nc3cc(Cl)ccc3c(=O)n2Cc2ccccc2)C(C)C)cc1 [ispinesib]
# Procedure, shortened: as §1
# pictilisib = compound: CS(=O)(=O)N1CCN(Cc2cc3nc(-c4cccc5[nH]ncc45)nc(N4CCOCC4)c3s2)CC1 [pictilisib]
# Procedure, shortened: as §1
# duvelisib = compound: C[C@H](Nc1ncnc2nc[nH]c12)c1cc2cccc(Cl)c2c(=O)n1-c1ccccc1 [duvelisib]
# Procedure, shortened: as §1
# gandotinib = compound: Cc1cc(Nc2cc(CN3CCOCC3)c3nc(C)c(Cc4ccc(Cl)cc4F)n3n2)n[nH]1 [gandotinib]
# Procedure, shortened: as §1
# tozasertib = compound: Cc1cc(Nc2cc(N3CCN(C)CC3)nc(Sc3ccc(NC(=O)C4CC4)cc3)n2)n[nH]1 [tozasertib]
# Procedure, shortened: as §1
# filanesib = compound: CON(C)C(=O)N1N=C(c2cc(F)ccc2F)S[C@@]1(CCCN)c1ccccc1 [filanesib]
# Procedure, shortened: as §1
# [7] = compound: CS(=O)(=O)c1ccc(-c2cnc(N)c(C(=O)Nc3ccccc3)n2)cc1
# Procedure, shortened: as §1
Target,log2 fold change [1],log2 fold change (zotarolimus),log2 fold change (idasanutlin),log2 fold change (alisertib),log2 fold change [2],log2 fold change (gefitinib),log2 fold change [3],log2 fold change (lapatinib),log2 fold change (crizotinib),log2 fold change [4],log2 fold change [5],log2 fold change [6],log2 fold change (doramapimod),log2 fold change (ispinesib),log2 fold change (pictilisib),log2 fold change (duvelisib),log2 fold change (gandotinib),log2 fold change (tozasertib),log2 fold change (filanesib),log2 fold change [7]
CCDC82 (UniProt Q8N4S0),inactive: -0.356,inactive: 0.013,inactive: 0,inactive: 0.034,inactive: -0.013,inactive: 0.052,inactive: -0.102,inactive: 0.043,inactive: 0.148,inactive: -0.174,inactive: 0.015,inactive: -0.119,inactive: -0.165,inactive: -0.026,–,–,–,–,–,–
CD99L2 isoform 5 (UniProt Q8TCZ2),inactive: 0.092,inactive: 0.005,–,inactive: -0.01,inactive: 0.196,inactive: 0.073,inactive: -0.041,inactive: -0.103,inactive: 0.044,inactive: 0.017,inactive: 0.035,inactive: 0.016,inactive: 0.037,–,inactive: 0.121,inactive: 0.014,inactive: -0.152,inactive: 0.035,–,–
CCDC28A (UniProt Q8IWP9),inactive: 0.029,inactive: 0.057,inactive: 0.103,inactive: -0.05,inactive: -0.107,inactive: 0.011,inactive: 0.016,inactive: 0.03,inactive: -0.06,inactive: -0.083,inactive: -0.002,inactive: 0.09,inactive: -0.04,inactive: 0.029,–,inactive: 0.09,–,inactive: -0.004,inactive: 0.065,inactive: 0.005
CASP8 isoform 9 (UniProt Q14790),inactive: -0.087,–,inactive: -0.086,inactive: -0.107,inactive: 0.023,inactive: -0.153,inactive: 0.044,inactive: -0.028,inactive: -0.02,inactive: -0.013,–,inactive: -0.007,inactive: 0.072,inactive: -0.151,inactive: 0.127,–,inactive: -0.07,–,inactive: -0.017,inactive: 0.007
CCNYL1 (UniProt Q8N7R7),inactive: -0.122,inactive: 0.11,inactive: 0.036,inactive: -0.383,–,inactive: -0.116,inactive: 0.036,–,inactive: -0.06,inactive: 0.069,inactive: 0.143,inactive: 0.162,inactive: -0.006,–,inactive: -0.178,inactive: 0.072,inactive: 0.049,–,inactive: -0.031,inactive: 0.077
CCDC175 (UniProt P0C221),inactive: 0.06,inactive: 0.155,inactive: 0.022,inactive: -0.017,inactive: 0.084,inactive: 0.03,inactive: 0.025,inactive: -0.045,inactive: 0.011,–,inactive: 0.021,inactive: 0.064,inactive: 0.043,inactive: -0.101,inactive: 0.036,inactive: 0.03,inactive: -0.049,–,–,–
CCT6B isoform 3 (UniProt Q92526),inactive: -0.213,inactive: -0.011,inactive: -0.238,–,inactive: 0.146,–,–,inactive: 0.045,inactive: 0.055,–,inactive: 0.076,inactive: -0.043,inactive: -0.062,–,–,inactive: 0.194,–,inactive: -0.23,inactive: 0.158,inactive: 0.235
CDC25A (UniProt P30304),inactive: -0.081,–,–,inactive: 0.07,–,inactive: -0.023,inactive: 0.093,–,–,inactive: 0.149,–,–,inactive: -0.12,–,–,–,–,–,inactive: -0.052,inactive: 0.013
CCDC85C (UniProt A6NKD9),inactive: -0.196,inactive: -0.096,inactive: -0.09,inactive: -0.05,inactive: -0.297,–,inactive: 0.192,inactive: 0.119,inactive: 0.039,inactive: 0.05,inactive: -0.193,inactive: -0.09,inactive: 0.032,inactive: -0.124,inactive: 0.05,inactive: 0.061,inactive: -0.021,inactive: -0.021,inactive: 0.13,inactive: 0.362
CCDC167 (UniProt Q9P0B6),inactive: -0.054,inactive: -0.027,–,inactive: -0.068,inactive: -0.148,inactive: -0.021,inactive: -0.105,inactive: 0.016,inactive: 0.025,inactive: 0.071,inactive: 0.135,inactive: -0.214,inactive: 0.034,active: -0.344,inactive: 0.047,–,inactive: 0.181,–,inactive: -0.024,inactive: -0.08
CD80 (UniProt P33681),–,inactive: 0.027,inactive: 0.111,inactive: 0.12,inactive: 0.027,inactive: -0.003,inactive: -0.187,inactive: 0.088,–,–,inactive: -0.126,inactive: 0.022,–,inactive: 0.044,inactive: 0.038,inactive: -0.028,inactive: -0.313,inactive: -0.052,inactive: 0.007,inactive: 0.013
CDC20 (UniProt Q12834),inactive: 0.038,inactive: -0.075,inactive: 0.074,inactive: -0.285,inactive: -0.119,–,inactive: 0.058,inactive: 0.144,inactive: 0.009,inactive: 0.039,inactive: -0.228,inactive: 0.036,inactive: -0.074,inactive: -0.057,inactive: -0.006,inactive: 0.014,inactive: 0.015,inactive: 0.023,inactive: -0.044,inactive: 0.017
CAV2 (UniProt P51636),inactive: -0.046,–,inactive: 0,inactive: -0.083,inactive: -0.011,inactive: 0.137,inactive: 0.026,inactive: -0.018,inactive: -0.087,–,–,inactive: 0.035,inactive: 0.13,–,inactive: 0.031,–,inactive: 0.043,–,inactive: 0.131,inactive: -0.067
CD276 (UniProt Q5ZPR3),inactive: -0.27,–,–,–,–,–,–,–,inactive: 0.151,–,–,–,inactive: 0.02,–,inactive: 0.088,–,inactive: -0.12,–,–,–
CCDC57 (UniProt Q2TAC2),inactive: 0.006,inactive: -0.081,–,inactive: 0.013,inactive: -0.008,inactive: 0.009,inactive: 0.063,inactive: 0.07,inactive: 0.06,inactive: 0.065,inactive: 0.139,–,inactive: -0.035,inactive: -0.034,–,–,–,–,inactive: 0.01,inactive: -0.026
CASP9 (UniProt P55211),inactive: 0.095,inactive: -0.043,inactive: -0.008,–,inactive: 0.02,inactive: 0.146,–,inactive: -0.034,inactive: 0.002,inactive: 0.014,inactive: 0.014,inactive: 0.064,inactive: 0.05,inactive: 0.037,inactive: -0.019,–,inactive: -0.152,–,inactive: 0.169,inactive: 0.088
CDC25B isoform 4 (UniProt P30305),inactive: -0.038,inactive: -0.056,inactive: 0.052,inactive: -0.018,inactive: 0.026,inactive: -0.013,inactive: 0.068,inactive: -0.012,–,inactive: -0.216,inactive: -0.057,–,inactive: 0.132,inactive: 0.019,inactive: 0.03,–,inactive: 0.122,–,inactive: 0.005,inactive: -0.104
CCSMST1 (UniProt Q4G0I0),inactive: -0.071,inactive: -0.066,inactive: -0.049,inactive: -0.08,inactive: -0.159,inactive: 0.014,inactive: 0.031,inactive: 0.018,inactive: 0.127,inactive: 0.221,inactive: 0.002,inactive: -0.114,inactive: -0.002,inactive: -0.027,–,inactive: 0.078,–,inactive: 0.017,inactive: -0.015,inactive: -0.007
CD69 (UniProt Q07108),inactive: 0.11,inactive: -0.099,–,inactive: -0.04,inactive: 0.155,inactive: 0.076,inactive: 0.061,inactive: -0.044,inactive: -0.036,inactive: -0.13,inactive: 0.373,–,inactive: -0.188,–,inactive: -0.057,–,inactive: -0.035,–,inactive: 0.13,inactive: -0.015
CCDC137 (UniProt Q6PK04),inactive: -0.14,inactive: 0.15,inactive: 0.33,inactive: -0.222,–,inactive: -0.05,inactive: -0.217,–,inactive: 0.03,inactive: -0.022,inactive: 0.544,inactive: -0.098,inactive: 0.294,inactive: -0.004,inactive: 0.169,inactive: -0.143,inactive: 0.225,inactive: 0.106,inactive: 0.555,inactive: 0.214
CCNE2 (UniProt O96020),inactive: 0.175,–,–,–,–,–,–,–,inactive: -0.305,–,–,inactive: -0.039,inactive: -0.027,–,–,inactive: 0.068,–,–,–,–

# Part of the list above, bar-delimited:
Target | log2 fold change [1] | log2 fold change (zotarolimus) | log2 fold change (idasanutlin) | log2 fold change (alisertib) | log2 fold change [2] | log2 fold change (gefitinib) | log2 fold change [3] | log2 fold change (lapatinib) | log2 fold change (crizotinib) | log2 fold change [4] | log2 fold change [5] | log2 fold change [6] | log2 fold change (doramapimod) | log2 fold change (ispinesib) | log2 fold change (pictilisib) | log2 fold change (duvelisib) | log2 fold change (gandotinib) | log2 fold change (tozasertib) | log2 fold change (filanesib) | log2 fold change [7]
CCDC167 (UniProt Q9P0B6) | inactive: -0.054 | inactive: -0.027 | – | inactive: -0.068 | inactive: -0.148 | inactive: -0.021 | inactive: -0.105 | inactive: 0.016 | inactive: 0.025 | inactive: 0.071 | inactive: 0.135 | inactive: -0.214 | inactive: 0.034 | active: -0.344 | inactive: 0.047 | – | inactive: 0.181 | – | inactive: -0.024 | inactive: -0.08
CD80 (UniProt P33681) | – | inactive: 0.027 | inactive: 0.111 | inactive: 0.12 | inactive: 0.027 | inactive: -0.003 | inactive: -0.187 | inactive: 0.088 | – | – | inactive: -0.126 | inactive: 0.022 | – | inactive: 0.044 | inactive: 0.038 | inactive: -0.028 | inactive: -0.313 | inactive: -0.052 | inactive: 0.007 | inactive: 0.013

# Reference: the supplement of paper PMC10849652
